Molecules are shown by their SMILES. Several values for one entry are separate records, joined by “and”; a condition that tells them apart may be missing. Equal entries are not always repeated. Some of the results follow. Further columns of the screen follow, without active or inactive calls. Most of these compounds were active or inconclusive in the main read-out, so they are no random draw. Potencies come from curve fits of mixed quality, noted in brackets.

The nature of the assay: Cell signaling CRE-BLA (Fsk stim). As to conditions: CHO CRE-bla reporter (cAMP response element driving beta-lactamase), forskolin EC10, beta-lactamase ratio; measured here: 460 nm blue channel. The gist of the method:
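Reporter-gene assay: CHO cells with beta-lactamase behind cAMP responsive elements, co-treated with compound and EC10 NKH 477 for 3 hours at 37 degrees Celsius. Activity came from the 460/530 nm CCF4 emission ratio.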
In the case of `O=c1c2ccccc2cnn1-c1nc2ccccc2s1`, the AC50 (usually the midpoint of the concentration-response curve, whichever way the signal moves) was 0.00316 µM [falling, full curve, poor fit].
In the case of `O=C1OC2(c3cc(Br)c(O)c(Br)c3Oc3c2cc(Br)c(O)c3Br)c2c(Cl)c(Cl)c(Cl)c(Cl)c21`, the AC50 is 31.6 µM [falling, single point].
To `CCn1c(/C(C#N)=C(\O)CCc2ccccc2)nc2ccccc21` belongs 12.6 µM [falling, single point].
The same measure for `CCOC(=O)c1[nH]c(COC(=O)CCCOc2ccccc2)c(C(=O)OCC)c1C`: 10 µM [rising, partial curve]; for `Cc1csc(NC(=O)c2ccc(C)c(S(=O)(=O)N3CCCCC3)c2)n1`: 7.94 µM [rising, partial curve, poor fit].
The same measure for `NC(=O)c1c(NC(=O)C2CCCO2)sc2c1CCC2` (stereo unspecified): 12.6 µM [rising, single point].
`CCOc1ccccc1NC(=O)CCSc1nc2n[nH]c(C)c2c(=N)n1-c1ccccc1Cl`: the AC50 is 1.26 µM [rising, full curve].
`Cn1c(=O)c2c(nc(OCc3cccnc3)n2Cc2c(F)cccc2Cl)n(C)c1=O`: the AC50 was 1.58 µM [rising, full curve].
For `CCCCOc1ccc(C(=O)Oc2ccc(C)nc2)cc1`, the AC50 was 0.0251 µM [falling, full curve, poor fit].
To `N#Cc1nc(Cc2ccccc2)oc1N1CCC(C(N)=O)CC1` belongs 2 µM [falling, full curve, poor fit]; to `O=C(CCS(=O)(=O)c1ccc(Br)cc1)N1CCN(c2ccccc2)CC1`, 0.398 µM [falling, full curve].
In the case of `CN(CC(=O)Nc1ccc(F)c(F)c1F)c1cnccn1`, the AC50 is 0.00398 µM [falling, full curve, poor fit].
In the case of `O=C(c1cc2nc3c(c(C(F)(F)F)n2n1)CCc1ccccc1-3)N1CCN2CCCC2C1` (stereo unspecified), the AC50 was 12.6 µM [rising, partial curve, poor fit].
Turning to `CC(C)C(=O)Nc1c(C(=O)c2ccc(F)cc2)oc2ccccc12`, the AC50 is 10 µM [rising, partial curve].
Consider `COc1ccc(OC)c(NC(=O)CCN2CCN(c3ccccc3F)CC2)c1`, for which the AC50 is 0.00316 µM [falling, full curve, poor fit].
The same measure for `COc1cc2cc(CN(Cc3nnnn3C3CCCC3)C3CCCC3)c(=O)[nH]c2cc1OC`: 25.1 µM [rising, single point].
For the molecule `CCOC(=O)c1c(N)c(C#N)cn1-c1ccccc1`, the AC50 was 10 µM [rising, partial curve].
For the molecule `COc1ccc(C)cc1NC(=O)CNC(=O)Cn1ccc2ccccc2c1=O`, the AC50 is 0.2 µM [falling, partial curve].
As for `CCn1c(SCC(=O)c2[nH]c(C)c(C(C)=O)c2C)nnc1-c1ccncc1`, the AC50 is 0.158 µM [rising, full curve, poor fit].
For `N#CC1=C(N)SC(N)=C(C#N)C1c1ccnc2ccccc12`, the AC50 is 3.98 µM [falling, partial curve].
`CCN(C(=O)c1cnc(N2CCN(c3ncccn3)CC2)c2ccccc12)c1cccc(Cl)c1`: the AC50 was 0.00316 µM [falling, full curve, poor fit].
For `CCCCN1C(=O)C2ON(c3ccccc3C)C(c3ccco3)C2C1=O` (stereo unspecified), the AC50 was 0.501 µM [rising, partial curve].
In the case of `O=C(Nc1ccccc1Cl)c1c(F)c(F)c(F)c(F)c1F`, the AC50 was 0.398 µM [falling, partial curve, poor fit].
Regarding `CCOCN(C(=O)Cn1c(CO)nc2ccccc21)c1c(C)cccc1CC`, the half-maximal activity concentration (AC50) was 1 µM [falling, partial curve].
For the molecule `Fc1ccc(-c2nnc3sc(-c4ccc5c(c4)OCO5)nn23)cc1`, the AC50 was 10 µM [rising, single point].
Regarding `O=c1c2[nH]c3ccc(Br)cc3c2ncn1CCCn1ccnc1`, the AC50 was 12.6 µM [rising, partial curve].
Turning to `CCOC(=O)c1c(NC(=O)CN2CCOCC2)sc2c1CCCC2=O`, the AC50 is 12.6 µM [rising, partial curve].
As to `N#Cc1c(N)nc(SCc2ccccc2)c(C#N)c1-c1ccco1`, the AC50 was 3.16 µM [rising, full curve].
In the case of `O=C(CSc1nc2ccccc2[nH]1)Nc1ccccc1N1CCOCC1`, the AC50 is 10 µM [rising, partial curve].
The same measure for `CCCNc1nc2c(c(=O)[nH]c(=O)n2C)n1CCc1ccccc1`: 12.6 µM [rising, partial curve].
With `CCCc1nc(-c2ccccc2O)n(-c2ccccc2)n1`, the AC50 was 10 µM [rising, partial curve].
In the case of `COc1ccc(C)cc1NC(=O)CN1CCN(S(=O)(=O)c2ccc(Cl)cc2)CC1`, the AC50 is 0.398 µM [falling, partial curve].
The same measure for `CN(C)C(=O)c1ccc(-c2ccc3ncnc(Nc4ccccc4)c3c2)cc1`: 6.31 µM [rising, partial curve]; for `COc1cc(C(=O)NCC(=O)OCC(=O)c2ccc[nH]2)cc(OC)c1OC`: 15.8 µM [rising, single point].
On to `CCOc1cc(C#N)c(NC(=O)c2cccnc2)cc1OCC`, for which the AC50 is 10 µM [rising, single point].
As to `Cc1cccc(N2CCN(C(=O)c3cc4n(n3)C(C(F)(F)F)CC(c3ccco3)N4)CC2)c1C` (stereo unspecified), the AC50 was 20 µM [falling, partial curve].
To `CCn1c(SCC(=O)Nc2nc3c(s2)CCCC3)nnc1-c1ccccc1` belongs 10 µM [rising, single point]; to `O=C1CC(Nc2ccc(N3CCOCC3)cc2)C(=O)N1C1CCCCC1` (stereo unspecified), 3.16 µM [falling, single point].
To `CCn1c(SCc2nc(-c3ccccc3)no2)nc2ccccc21` belongs 12.6 µM [rising, partial curve]; to `CC1CCN(C(=O)CN(c2ccc3c(c2)OCO3)S(C)(=O)=O)CC1`, 0.00316 µM [falling, full curve, poor fit]; to `Cc1oc(-c2ccc(F)cc2)cc1-c1nn2c(-c3ccoc3C)nnc2s1`, 12.6 µM [rising, single point].
The same measure for `COCCCNC(=O)c1c(N)n(-c2ccc3c(c2)OCO3)c2nc3ccccc3nc12`: 12.6 µM [rising, partial curve].
As for `CC(C)(C)OC(=O)N1CCC(C(=O)N2CCC[C@H]2C(=O)O)CC1`, the concentration at half-maximal activity (AC50) was 5.01 µM [falling, partial curve].
`O=C(O)Cn1nnnc1SCC(=O)Nc1ccc(OC(F)(F)F)cc1`: the AC50 is 7.94 µM [falling, partial curve, poor fit].
In the case of `C=CCn1c(NCCO)nc2sc3c(c2c1=O)CCC3`, the AC50 is 12.6 µM [rising, partial curve].
The same measure for `Cc1cc(C(=O)CN2C(=O)c3ccccc3C2=O)c(C)n1C1CC1`: 5.01 µM [falling, single point].
The same measure for `O=C(Nc1cccc(-c2nc3ncccc3o2)c1)c1cc2ccccc2o1`: 25.1 µM [falling, single point]; for `COC(=O)c1cn(NC(=O)c2cnccn2)c(=O)c2ccccc12`: 0.0794 µM [falling, partial curve, poor fit].
As for `COc1ccccc1Nc1nc(N)nc(CSc2nnc(C)s2)n1`, the AC50 is 12.6 µM [rising, partial curve].
The same measure for `CCOC(=O)Cc1csc(NC(=O)CSc2ncnc3c2cnn3-c2ccc(OC)cc2)n1`: 12.6 µM [rising, partial curve]; for `NC(=O)CS(=O)(=O)c1nc2ccccc2n1Cc1ccccc1F`: 12.6 µM [falling, single point].
To `COc1ccc(-c2cc3nc4c(c(N5CCC6(CC5)OCCO6)n3n2)CCCC4)cc1` belongs 2.51 µM [rising, full curve]; to `Nn1cc(-c2ccccc2)nc1SCC(=O)N1CCN(S(=O)(=O)c2ccccc2)CC1`, 5.01 µM [falling, partial curve].
Consider `Cc1ccc(-c2csc3ncnc(OCC(=O)NC(=O)NCc4ccco4)c23)cc1`, for which the AC50 was 0.251 µM [falling, full curve, poor fit].
Take `Cn1c(C(=O)NCCCN2CCCC2=O)cc2c(=O)n(C)c3ccccc3c21`: the AC50 is 3.98 µM [rising, full curve].
The same measure for `COc1ccc(-c2nc(CS(=O)CC(=O)NC3CCCc4ccccc43)c(C)o2)cc1OC` (stereo unspecified): 5.01 µM [rising, partial curve].
As for `Brc1c(OCCOCCn2cncn2)ccc2ccccc12`, the AC50 is 10 µM [rising, partial curve].
The same measure for `CC(C)(C)C1CCC2(CC1)NC(CO)(CO)CO2` (stereo unspecified): 0.00398 µM [falling, full curve, poor fit].
Turning to `COc1ccc(NS(=O)(=O)c2ccc(Oc3ncccn3)cc2)cc1`, the AC50 is 2 µM [falling, partial curve].
The same measure for `COc1ccc(CN2C(=O)[C@@H]3C(c4ccccc4Cl)=NO[C@@H]3C2=O)cc1`: 0.00631 µM [falling, full curve, poor fit]; for `CSc1nnc(NC(=O)C2CCCCC2)s1`: 3.98 µM [rising, single point]; for `CC(C)(C)n1ncc2c(=O)n(CC(=O)N3CCc4ccccc43)cnc21`: 0.126 µM [falling, full curve].
To `CC[C@@H]1CN2CCc3cc(OC)c(OC)cc3[C@H]2C[C@@H]1C[C@H]1NCCc2cc(OC)c(OC)cc21` belongs 5.01 µM [falling, partial curve] and 251 nM [falling, full curve]; to `CNc1nc(SC)nc(N2CCOCC2)n1`, 7.94 µM [rising, partial curve].
To `COC(=O)CN(c1ccc(OC)cc1)S(=O)(=O)c1ccc(OC)c(OC)c1` belongs 10 µM [rising, partial curve]; to `O=C(c1cccs1)N1CCN(S(=O)(=O)N2CCOCC2)CC1`, 0.00398 µM [falling, full curve, poor fit].

The values above are taken from PubChem BioAssay AID662 (National Center for Advancing Translational Sciences (NCATS), 2007).
